PubChem BioAssay AID2551 (National Center for Advancing Translational Sciences (NCATS), 2010)
In all, about 310,000 compounds went through this assay and about 17,000 (5.5%) were called active. The inconclusive results got no clear call from the source; some entries with a clear call stand among them for comparison. Calls come from the whole dose curve; as a rule, active = well fitted inhibition curve with a large enough effect; inconclusive = small, poorly fitted or top-dose-only effect, or effect the other way; inactive = no such curve, though single readings can be large or run the other way. Potencies of inconclusive entries are doubtful fits and often do not repeat.

The chains behind the UniProt entries cited, without tags or fusion partners. Where a name states a change or a piece, a line headed by the entry shows the natural chain unless it says otherwise.
UniProt P51450: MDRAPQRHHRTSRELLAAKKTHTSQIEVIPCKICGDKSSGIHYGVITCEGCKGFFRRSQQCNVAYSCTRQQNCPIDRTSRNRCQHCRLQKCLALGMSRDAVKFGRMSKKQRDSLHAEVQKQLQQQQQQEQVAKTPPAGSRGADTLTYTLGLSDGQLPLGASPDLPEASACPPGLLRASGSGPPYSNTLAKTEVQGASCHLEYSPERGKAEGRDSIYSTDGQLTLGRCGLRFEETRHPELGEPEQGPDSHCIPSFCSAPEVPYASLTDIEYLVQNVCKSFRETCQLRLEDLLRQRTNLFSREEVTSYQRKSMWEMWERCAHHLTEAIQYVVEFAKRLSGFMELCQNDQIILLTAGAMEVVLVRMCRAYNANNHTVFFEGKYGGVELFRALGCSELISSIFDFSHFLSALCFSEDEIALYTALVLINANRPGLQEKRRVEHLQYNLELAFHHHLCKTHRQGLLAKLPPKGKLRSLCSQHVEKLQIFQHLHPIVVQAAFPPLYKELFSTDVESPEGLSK

Molecular target: Nuclear receptor ROR-gamma (Mus musculus) (UniProt P51450)
Experiment: qHTS for inhibitors of ROR gamma transcriptional activity; note: nearly all actives have a fitted effect of over 60% in size
Details: Drosophila S2 Gal4-RORgamma UAS-luciferase reporter, 20 h; series mostly up to 53.6 µM
Procedure, shortened: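 Luminescence from a UAS-regulated Photinus luciferase reporter in stably transfected Drosophila Schneider cells is measured; decreased signal marks ROR gamma inhibition. Fusion expression is induced by 700 uM copper sulfate for 20 hr.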
Potency is the fitted concentration of half-maximal effect.

| SMILES | Potency |
| --- | --- |
| O=C(/C=C/c1ccco1)Oc1ccc(C(=S)N2CCOCC2)cc1 | inactive |
| COc1ccccc1N1CCN(CC(O)COc2ccc3c(c2)CCC3)CC1 (configuration not stated) | inactive |
| CCN(Cc1ccccc1)C(=O)CSc1nncn1C | inactive |
| O=C(CSc1nc2ccccc2[nH]1)Nc1ccc(F)cc1 | inactive |
| Clc1ccc(CNc2ccc(CNc3ncn[nH]3)cc2)c(Cl)c1 | inconclusive: 15.8 µM [inhibitor, single point] |
| COc1cc(OC)cc(C(=O)NC(C)c2cnn(-c3ccccc3C)c2C)c1 (configuration not stated) | inconclusive: 11.2 µM [activator, partial curve] |
| NC(=S)NNC(=O)c1ccccc1 | active: 2.82 µM |
| O=C1c2ccsc2SCCN1Cc1c(Cl)cccc1Cl | inconclusive: 2.82 µM [inhibitor, single point] |
| Cc1cc(=O)[nH]c(N/N=C/c2ccccn2)n1 | inconclusive: 25.1 µM [inhibitor, single point] |
| COCc1nnc(NC(=O)CSCc2ccccc2)s1 | active: 11.2 µM |
| Cc1cc(C(=O)O)ccc1-n1c(C)cc(C=C2C(=O)c3ccccc3C2=O)c1C | inconclusive: 20 µM [activator, partial curve] |
| COc1ccc(C(=O)NC2CCCc3ccccc32)cc1[N+](=O)[O-] (configuration not stated) | inactive |
| COc1ccc(C(=O)NC(=S)NNC(=O)[C@H]2C[C@@H]2c2ccccc2)cc1OC | inconclusive: 12.6 µM [inhibitor, partial curve] |
| CCN(CC)/[N+]([O-])=N/Oc1cc(O/N=[N+](\[O-])N(C)C)c([N+](=O)[O-])cc1[N+](=O)[O-] | inconclusive: 11.2 µM [inhibitor, single point] |
| C/C(=N\NC(=S)NCc1ccccc1)c1ccccc1 | active: 3.55 µM |
| C=CCn1c(SCC(=O)Nc2cc(C)c(Cl)cc2OC)nnc1-c1ccco1 | inconclusive: 14.1 µM [activator, partial curve] |
| S=C(Nc1ccc(Cl)cc1Cl)Nc1ccccc1Oc1ccccc1 | active: 10 µM |
| Cc1cc(Nc2ccccc2)c2c([N+](=O)[O-])ccc(C)c2n1 | inconclusive: 14.1 µM [inhibitor, single point] |
| CC(=O)Nc1ccc(NC(=O)Cc2ccc(S(=O)(=O)N3CCCCC3)s2)cc1 | inconclusive: 11.2 µM [activator, single point] |
| O=C(NC(=S)Nc1cccc([N+](=O)[O-])c1)C1CCCCC1 | active: 10 µM |
| COc1ccc(CC(=O)NNS(=O)(=O)c2cccc([N+](=O)[O-])c2)cc1OC | inactive |
| O=C(N/N=C/c1cc(Cl)ccc1O)c1cccnc1 | active: 1.12 µM |

No new results follow: an excerpt of the list.

| SMILES | Potency |
| --- | --- |
| CC(=O)Nc1ccc(NC(=O)Cc2ccc(S(=O)(=O)N3CCCCC3)s2)cc1 | inconclusive: 11.2 µM [activator, single point] |
| O=C(NC(=S)Nc1cccc([N+](=O)[O-])c1)C1CCCCC1 | active: 10 µM |
| COc1ccc(CC(=O)NNS(=O)(=O)c2cccc([N+](=O)[O-])c2)cc1OC | inactive |
| O=C(N/N=C/c1cc(Cl)ccc1O)c1cccnc1 | active: 1.12 µM |
